# Laboratory results published in the supplement of paper PMC8728848.
# Some of the results follow.
# B1: SUN4 (Saccharomyces cerevisiae), P53616 (protein)
# chain: MGSSHHHHHHSSGLVPRGSHNGSIYGDLADFSGPYEKFEDGTIPCGQFPSGQGVIPISWLDEGGWSGVENTDTSTGGSCKEGSYCSYACQPGMSKTQWPSDQPSDGRSIGGLLCKDGYLYRSNTDTDYLCEWGVDAAYVVSELSNDVAICRTDYPGTENMVIPTYVQAGDSLPLTVVDQDTYYTWQGLKTSAAYYVNNAGISVEDACVWGSSSSGVGNWAPLNFGAGSSDGVAYLSLIPNPNNGNALNFNVKIVAADDSSTVNGECIYENGSFSGGSDGCTVSVTAGKAKFVLYN
# What was measured:
# Assay in all cases: glycan array binding signal (z-score within array); higher = stronger binding
# Details in all cases: glycan notation: IUPAC condensed, linker removed; mutation: Q318A
# Fuc(a1-2)Gal = target: Fuc(a1-2)Gal
# In short: (§1)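 The Consortium for Functional Glycomics database supplied 3228 glycan arrays, of which those lacking an available protein sequence were dropped. The binding signal, a within-array Z-score, was averaged across arrays of the same protein sequence and across linkers. Negative scores can be read as non-binding.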
# Fuc(a1-2)Gal(b1-3)GalNAc = target: Fuc(a1-2)Gal(b1-3)GalNAc
# In short: as §1
# [1] = target: Fuc(a1-2)Gal(b1-3)GalNAc(a1-3)[Fuc(a1-2)]Gal(b1-4)Glc
# In short: as §1
# [2] = target: Fuc(a1-2)Gal(b1-3)GalNAc(a1-3)[Fuc(a1-2)]Gal(b1-4)GlcNAc
# In short: as §1
# [3] = target: Fuc(a1-2)Gal(b1-3)GalNAc(b1-3)Gal
# In short: as §1
# [4] = target: Fuc(a1-2)Gal(b1-3)GalNAc(b1-3)Gal(a1-4)Gal(b1-4)Glc
# In short: as §1
# [5] = target: Fuc(a1-2)Gal(b1-3)GalNAc(b1-4)[Neu5Ac(a2-3)]Gal(b1-4)Glc
# In short: as §1
# Fuc(a1-2)Gal(b1-3)GlcNAc = target: Fuc(a1-2)Gal(b1-3)GlcNAc
# In short: as §1
# [6] = target: Fuc(a1-2)Gal(b1-3)GlcNAc(b1-2)Man(a1-3)[Fuc(a1-2)Gal(b1-3)GlcNAc(b1-2)Man(a1-6)]Man(b1-4)GlcNAc(b1-4)GlcNAc
# In short: as §1
# [7] = target: Fuc(a1-2)Gal(b1-3)GlcNAc(b1-2)Man(a1-3)[Fuc(a1-2)Gal(b1-3)GlcNAc(b1-2)Man(a1-6)]Man(b1-4)GlcNAc(b1-4)[Fuc(a1-6)]GlcNAc
# In short: as §1
# [8] = target: Fuc(a1-2)Gal(b1-3)GlcNAc(b1-3)Gal(b1-4)Glc
# In short: as §1
# [9] = target: Fuc(a1-2)Gal(b1-3)GlcNAc(b1-3)GalNAc
# In short: as §1
# [10] = target: Fuc(a1-2)Gal(b1-3)GlcNAc(b1-3)[Fuc(a1-2)Gal(b1-3)GlcNAc(b1-6)]GalNAc
# In short: as §1
# [11] = target: Fuc(a1-2)Gal(b1-3)GlcNAc(b1-3)[Gal(b1-4)GlcNAc(b1-6)]Gal(b1-4)Glc
# In short: as §1
# [12] = target: Fuc(a1-2)Gal(b1-3)GlcNAc(b1-3)[Neu5Ac(a2-6)Gal(b1-4)GlcNAc(b1-6)]Gal(b1-4)Glc
# In short: as §1
# [13] = target: Fuc(a1-2)Gal(b1-3)GlcNAc6S
# In short: as §1
# [14] = target: Fuc(a1-2)Gal(b1-3)[Fuc(a1-4)]GlcNAc
# In short: as §1
# [15] = target: Fuc(a1-2)Gal(b1-3)[Fuc(a1-4)]GlcNAc(b1-2)Man(a1-3)[Fuc(a1-2)Gal(b1-3)[Fuc(a1-4)]GlcNAc(b1-2)Man(a1-3)]Man(b1-4)GlcNAc(b1-4)GlcNAc
# In short: as §1
# [16] = target: Fuc(a1-2)Gal(b1-3)[Fuc(a1-4)]GlcNAc(b1-2)Man(a1-3)[Fuc(a1-2)Gal(b1-3)[Fuc(a1-4)]GlcNAc(b1-2)Man(a1-6)]Man(b1-4)GlcNAc(b1-4)[Fuc(a1-6)]GlcNAc(b1-4)[Fuc(a1-6)]GlcNAc
# In short: as §1
# [17] = target: Fuc(a1-2)Gal(b1-3)[Fuc(a1-4)]GlcNAc(b1-3)[Fuc(a1-3)[Gal(b1-4)]GlcNAc(b1-6)]Gal(b1-4)Glc
# In short: as §1
# [18] = target: Fuc(a1-2)Gal(b1-3)[Fuc(a1-4)]GlcNAc(b1-3)[Gal(b1-4)GlcNAc(b1-6)]Gal(b1-4)Glc
# In short: as §1
# [19] = target: Fuc(a1-2)Gal(b1-4)Fuc(a1-3)]GlcNAc(b1-2)Man(a1-3)[Fuc(a1-2)Gal(b1-4)[Fuc(a1-3)]GlcNAc(b1-2)Man(a1-6)]Man(b1-4)GlcNAc(b1-4)GlcNAc
# In short: as §1
# Fuc(a1-2)Gal(b1-4)Glc = target: Fuc(a1-2)Gal(b1-4)Glc
# In short: as §1
# Fuc(a1-2)Gal(b1-4)Glc6S = target: Fuc(a1-2)Gal(b1-4)Glc6S
# In short: as §1
# Fuc(a1-2)Gal(b1-4)GlcNAc = target: Fuc(a1-2)Gal(b1-4)GlcNAc
# In short: as §1
# [20] = target: Fuc(a1-2)Gal(b1-4)GlcNAc(b1-2)Man
# In short: as §1
# [21] = target: Fuc(a1-2)Gal(b1-4)GlcNAc(b1-2)Man(a1-3)[Fuc(a1-2)Gal(b1-4)GlcNAc(b1-2)Man(a1-6)]Man(b1-4)GlcNAc(b1-4)GlcNAc
# In short: as §1
# [22] = target: Fuc(a1-2)Gal(b1-4)GlcNAc(b1-2)Man(a1-3)[Fuc(a1-2)Gal(b1-4)GlcNAc(b1-2)Man(a1-6)]Man(b1-4)GlcNAc(b1-4)[Fuc(a1-6)]GlcNAc
# In short: as §1
# [23] = target: Fuc(a1-2)Gal(b1-4)GlcNAc(b1-2)[Fuc(a1-2)Gal(b1-4)GlcNAc(b1-4)]Man(a1-3)[Fuc(a1-2)Gal(b1-4)GlcNAc(b1-2)Man(a1-6)]Man(b1-4)GlcNAc(b1-4)GlcNAc
# In short: as §1
# [24] = target: Fuc(a1-2)Gal(b1-4)GlcNAc(b1-3)Gal(b1-4)GlcNAc
# In short: as §1
# [25] = target: Fuc(a1-2)Gal(b1-4)GlcNAc(b1-3)Gal(b1-4)GlcNAc(b1-2)Man(a1-3)[Fuc(a1-2)Gal(b1-4)GlcNAc(b1-3)Gal(b1-4)GlcNAc(b1-2)Man(a1-6)]Man(b1-4)GlcNAc(b1-4)GlcNAc
# In short: as §1
# [26] = target: Fuc(a1-2)Gal(b1-4)GlcNAc(b1-3)Gal(b1-4)GlcNAc(b1-3)Gal(b1-4)GlcNAc
# In short: as §1
# [27] = target: Fuc(a1-2)Gal(b1-4)GlcNAc(b1-3)GalNAc
# In short: as §1
# [28] = target: Fuc(a1-2)Gal(b1-4)GlcNAc(b1-3)[Fuc(a1-2)Gal(b1-4)GlcNAc(b1-6)]GalNAc
# In short: as §1
# [29] = target: Fuc(a1-2)Gal(b1-4)GlcNAc(b1-3)[Fuc(a1-3)[Gal(b1-4)]GlcNAc(b1-6)]Gal(b1-4)Glc
# In short: as §1
# [30] = target: Fuc(a1-2)Gal(b1-4)GlcNAc(b1-6)GalNAc
# In short: as §1
# [31] = target: Fuc(a1-2)Gal(b1-4)GlcNAc6S
# In short: as §1
binder,measurement,setting,value
B1,glycan array binding signal (z-score),Fuc(a1-2)Gal,0.003
same,glycan array binding signal (z-score),Fuc(a1-2)Gal(b1-3)GalNAc,-0.075
same,glycan array binding signal (z-score),[1],0.002
same,glycan array binding signal (z-score),[2],-0.142
same,glycan array binding signal (z-score),[3],0.454
same,glycan array binding signal (z-score),[4],-1.17
same,glycan array binding signal (z-score),[5],-0.245
same,glycan array binding signal (z-score),Fuc(a1-2)Gal(b1-3)GlcNAc,-0.091
same,glycan array binding signal (z-score),[6],1.38
same,glycan array binding signal (z-score),[7],0.022
same,glycan array binding signal (z-score),[8],-0.078
same,glycan array binding signal (z-score),[9],-0.157
same,glycan array binding signal (z-score),[10],0.442
same,glycan array binding signal (z-score),[11],-0.634
same,glycan array binding signal (z-score),[12],-1.25
same,glycan array binding signal (z-score),[13],0.054
same,glycan array binding signal (z-score),[14],-0.192
same,glycan array binding signal (z-score),[15],-0.278
same,glycan array binding signal (z-score),[16],1.14
same,glycan array binding signal (z-score),[17],-0.932
same,glycan array binding signal (z-score),[18],0.096
same,glycan array binding signal (z-score),[19],2.65
same,glycan array binding signal (z-score),Fuc(a1-2)Gal(b1-4)Glc,-0.964
same,glycan array binding signal (z-score),Fuc(a1-2)Gal(b1-4)Glc6S,-0.114
same,glycan array binding signal (z-score),Fuc(a1-2)Gal(b1-4)GlcNAc,-0.67
same,glycan array binding signal (z-score),[20],0.036
same,glycan array binding signal (z-score),[21],-0.18
same,glycan array binding signal (z-score),[22],0.745
same,glycan array binding signal (z-score),[23],0.729
same,glycan array binding signal (z-score),[24],0.379
same,glycan array binding signal (z-score),[25],1.88
same,glycan array binding signal (z-score),[26],0.397
same,glycan array binding signal (z-score),[27],0.38
same,glycan array binding signal (z-score),[28],0.387
same,glycan array binding signal (z-score),[29],0.41
same,glycan array binding signal (z-score),[30],0.954
same,glycan array binding signal (z-score),[31],0.645

# Looked up one by one from above, 3 records:
binder,measurement,setting,value
B1,glycan array binding signal (z-score),[19],2.65
same,glycan array binding signal (z-score),[15],-0.278
same,glycan array binding signal (z-score),[1],0.002
